Assay results: patent US11426426B2, “Pharmaceutical composition for preventing or treating inflammatory diseases, containing nitrogen monoxide-sensitive acrylamide-based polymer” (POSTECH ACADEMY-INDUSTRY FOUNDATION, priority 2018, dated 2022)
At least one compound was matched to its structure with a doubt left.

Assays:
[1] = system: Collagen-induced arthritis (CIA) animal models; test: Collagen-induced arthritis (CIA) model, severity of articular inflammation (arthritis index); assay type: in vivo, mice; conditions: footpad injection two times at an interval of 7 days
[2] = system: rheumatoid arthritis model animals (DBA/1J mice, type II collagen); test: Rheumatoid arthritis model, observation of footpads; assay type: in vivo; conditions: footpad injection two times at an interval of 7 days

C[C@@H]1C[C@H]2[C@@H]3CCC4=CC(=O)C=C[C@]4(C)[C@@]3(F)[C@@H](O)C[C@]2(C)[C@@]1(O)C(=O)CO [dexamethasone]
disease index (arthritis index) ([1]; after two weeks): the effect was deteriorated | disease index (arthritis index) ([1]; up to two weeks): alleviated rheumatoid arthritis similarly to Example 1 | edema or rubefaction in the footpads ([2]; Week 2): edema or rubefaction in the footpads almost did not occur | edema or rubefaction in the footpads ([2]; Week 5): slight rubefaction occurred
